Measured values taken from paper PMC11172375, “Preclinical Evaluation of Biodistribution and Toxicity of [^211At]PSMA-5 in Mice and Primates for the Targeted Alpha Therapy against Prostate Cancer” (International Journal of Molecular Sciences, 2024).

Experiment: Estimated absorbed doses in humans from SPECT images in monkeys
Format: in vivo

## O=C(O)CC[C@H](NC(=O)N[C@@H](CCCCNC(=O)[C@@H](Cc1ccc2ccccc2c1)NC(=O)c1ccc(CNC(=O)[C@@H](CCC(=O)O)NC(=O)[C@@H](CCC(=O)O)NC(=O)Cc2ccc([211At])cc2)cc1)C(=O)O)C(=O)O [[^211At]PSMA-5]
Human estimate from monkey SPECT 1, 3, 24 hrs, Salivary glands
  Estimated absorbed dose from monkey: 3.51 mGy/MBq
Human estimate from monkey SPECT, Heart
  Estimated absorbed dose from monkey: 0.93 mGy/MBq
Human estimate from monkey SPECT, Kidney
  Estimated absorbed dose from monkey: 1.41 mGy/MBq
Human estimate from monkey SPECT, Liver
  Estimated absorbed dose from monkey: 0.25 mGy/MBq
